In publication PMC10218704, “A Novel Blood–Brain Barrier-Penetrating and Vascular-Targeting Chimeric Peptide Inhibits Glioma Angiogenesis” (International Journal of Molecular Sciences, 2023) one finds binding data, which are given here for one molecule.

Protein sequences, listed by entry. Tags and fused reporters are not part of them. Residues count along the entry.
UniProt P35968, residues 20-764: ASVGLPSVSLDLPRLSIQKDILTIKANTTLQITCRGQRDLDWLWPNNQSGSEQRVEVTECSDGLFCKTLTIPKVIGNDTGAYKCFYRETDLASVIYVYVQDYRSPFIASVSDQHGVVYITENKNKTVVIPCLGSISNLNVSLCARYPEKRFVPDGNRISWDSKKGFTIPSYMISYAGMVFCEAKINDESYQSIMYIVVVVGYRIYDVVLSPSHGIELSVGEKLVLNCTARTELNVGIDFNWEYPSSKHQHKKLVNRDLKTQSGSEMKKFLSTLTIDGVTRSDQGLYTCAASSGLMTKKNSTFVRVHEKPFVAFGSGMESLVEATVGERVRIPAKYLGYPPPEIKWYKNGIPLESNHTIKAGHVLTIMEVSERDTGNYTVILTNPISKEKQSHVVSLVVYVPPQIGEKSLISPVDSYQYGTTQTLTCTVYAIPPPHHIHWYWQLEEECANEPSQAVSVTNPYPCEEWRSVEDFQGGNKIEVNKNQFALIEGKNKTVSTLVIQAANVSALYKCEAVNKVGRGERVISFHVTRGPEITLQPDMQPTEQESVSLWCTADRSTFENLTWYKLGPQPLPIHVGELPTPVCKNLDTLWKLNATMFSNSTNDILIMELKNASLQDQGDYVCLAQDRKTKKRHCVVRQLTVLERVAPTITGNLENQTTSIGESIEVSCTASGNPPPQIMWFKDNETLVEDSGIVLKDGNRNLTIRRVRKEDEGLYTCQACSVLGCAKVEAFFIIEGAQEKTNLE

The target in experiment [1] is Purified recombinant human VEGFR-2 receptor protein (human) (UniProt P35968). The experiment can be described thus: SPR; both purified. Background: Surface plasmon resonance follows binding to a sensor surface in real time, without labels.
For experiment [2], the target named is T1, Purified recombinant human NRP-1 receptor protein (human) (UniProt O14786).
T1 sequence: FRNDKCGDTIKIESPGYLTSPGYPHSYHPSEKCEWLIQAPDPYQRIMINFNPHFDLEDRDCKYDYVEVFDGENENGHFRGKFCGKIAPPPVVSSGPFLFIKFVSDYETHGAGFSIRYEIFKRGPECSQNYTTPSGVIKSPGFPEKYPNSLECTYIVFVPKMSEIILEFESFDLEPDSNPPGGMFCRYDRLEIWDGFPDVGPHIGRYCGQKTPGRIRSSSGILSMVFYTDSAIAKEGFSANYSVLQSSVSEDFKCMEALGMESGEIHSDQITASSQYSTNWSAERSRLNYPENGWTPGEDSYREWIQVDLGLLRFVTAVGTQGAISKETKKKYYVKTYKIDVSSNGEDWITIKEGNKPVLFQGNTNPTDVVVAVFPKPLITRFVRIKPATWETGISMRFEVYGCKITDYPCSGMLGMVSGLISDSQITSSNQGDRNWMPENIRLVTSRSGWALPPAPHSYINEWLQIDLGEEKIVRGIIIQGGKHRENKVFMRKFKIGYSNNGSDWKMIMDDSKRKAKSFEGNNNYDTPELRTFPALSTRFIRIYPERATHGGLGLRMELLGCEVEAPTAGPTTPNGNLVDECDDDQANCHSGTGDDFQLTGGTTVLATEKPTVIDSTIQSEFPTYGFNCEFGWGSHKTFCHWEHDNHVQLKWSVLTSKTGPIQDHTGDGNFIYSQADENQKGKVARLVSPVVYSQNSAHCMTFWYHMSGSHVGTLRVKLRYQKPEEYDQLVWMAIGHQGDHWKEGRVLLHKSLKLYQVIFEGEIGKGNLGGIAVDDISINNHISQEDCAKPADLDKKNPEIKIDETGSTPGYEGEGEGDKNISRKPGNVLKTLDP
In words: SPR; both purified.

These are yes or no findings as the source states them, for the method shown. Some entries that bind do so weakly or less than the wild type.

Turning to RKKRRQRRRCATWLPPR [TAT-AT7], the binding result in experiment [1] and in experiment [2] was “binds” each time.
